Some of the results follow.
Legend:
Test in all cases: glycan array binding signal (z-score within array); higher = stronger binding
Details in all cases: glycan notation: IUPAC condensed, linker removed
Gal(b1-3)Gal = target: Gal(b1-3)Gal
How it was run: (§1)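 Glycan array data were curated from 3228 arrays in the Consortium for Functional Glycomics database and kept only where the protein sequence was available. Glycan names were converted to IUPAC-condensed notation, and columns mapping to the same glycan were averaged. The binding signal is a within-array Z-score, averaged across arrays of the same protein sequence at different concentrations or buffers and across linkers. Negative Z-scores can be read as non-binding.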

Gal(b1-3)Gal(b1-4)GlcNAc = target: Gal(b1-3)Gal(b1-4)GlcNAc
How it was run: as §1

[1] = target: Gal(b1-3)Gal(b1-4)GlcNAc(b1-2)Man(a1-3)[Gal(b1-3)Gal(b1-4)GlcNAc(b1-2)Man(a1-6)]Man(b1-4)GlcNAc(b1-4)GlcNAc
How it was run: as §1

Gal(b1-3)GalNAc = target: Gal(b1-3)GalNAc
How it was run: as §1

[2] = target: Gal(b1-3)GalNAc(a1-3)[Fuc(a1-2)]Gal(b1-4)Glc
How it was run: as §1

[3] = target: Gal(b1-3)GalNAc(a1-3)[Fuc(a1-2)]Gal(b1-4)GlcNAc
How it was run: as §1

[4] = target: Gal(b1-3)GalNAc(b1-3)Gal(a1-4)Gal(b1-4)Glc
How it was run: as §1

[5] = target: Gal(b1-3)GalNAc(b1-4)Gal(b1-4)Glc
How it was run: as §1

[6] = target: Gal(b1-3)GalNAc(b1-4)[Neu5Ac(a2-3)]Gal(b1-4)Glc
How it was run: as §1

Gal(b1-3)GlcNAc = target: Gal(b1-3)GlcNAc
How it was run: as §1

[7] = target: Gal(b1-3)GlcNAc(b1-2)Man(a1-3)[Gal(b1-3)GlcNAc(b1-2)Man(a1-6)]Man(b1-4)GlcNAc(b1-4)GlcNAc
How it was run: as §1

[8] = target: Gal(b1-3)GlcNAc(b1-2)Man(a1-3)[Gal(b1-3)GlcNAc(b1-2)Man(a1-6)]Man(b1-4)GlcNAc(b1-4)[Fuc(a1-6)]GlcNAc
How it was run: as §1

[9] = target: Gal(b1-3)GlcNAc(b1-3)Gal(b1-3)GlcNAc
How it was run: as §1

[10] = target: Gal(b1-3)GlcNAc(b1-3)Gal(b1-4)Glc
How it was run: as §1

[11] = target: Gal(b1-3)GlcNAc(b1-3)Gal(b1-4)GlcNAc
How it was run: as §1

[12] = target: Gal(b1-3)[Fuc(a1-4)]GlcNAc
How it was run: as §1

[13] = target: Gal(b1-3)[Fuc(a1-4)]GlcNAc(b1-2)Man(a1-3)[Gal(b1-3)[Fuc(a1-4)]GlcNAc(b1-2)Man(a1-6)]Man(b1-4)GlcNAc(b1-4)GlcNAc
How it was run: as §1

[14] = target: Gal(b1-3)[Fuc(a1-4)]GlcNAc(b1-2)Man(a1-3)[Gal(b1-3)[Fuc(a1-4)]GlcNAc(b1-2)Man(a1-6)]Man(b1-4)GlcNAc(b1-4)[Fuc(a1-6)]GlcNAc
How it was run: as §1

[15] = target: Gal(b1-3)[Fuc(a1-4)]GlcNAc(b1-3)Gal(b1-3)[Fuc(a1-4)]GlcNAc
How it was run: as §1

[16] = target: Gal(b1-3)[Fuc(a1-4)]GlcNAc(b1-3)Gal(b1-4)GlcNAc
How it was run: as §1

[17] = target: Gal(b1-3)[Fuc(a1-4)]GlcNAc(b1-3)Gal(b1-4)[Fuc(a1-3)]GlcNAc
How it was run: as §1

[18] = target: Gal(b1-3)[GlcNAc(b1-6)]GalNAc
How it was run: as §1

[19] = target: Gal(b1-3)[Neu5Ac(a2-6)]GalNAc
How it was run: as §1

[20] = target: Gal(b1-3)[Neu5Ac(a2-6)]GlcNAc(b1-6)Gal(b1-4)Glc
How it was run: as §1

[21] = target: Gal(b1-3)[Neu5Ac(b2-6)]GalNAc
How it was run: as §1

[22] = target: Gal(b1-4)GalNAc(a1-3)[Fuc(a1-2)]Gal(b1-4)GlcNAc
How it was run: as §1

[23] = target: Gal(b1-4)GalNAc(b1-3)[Fuc(a1-2)]Gal(b1-4)GlcNAc
How it was run: as §1

Gal(b1-4)Glc = target: Gal(b1-4)Glc
How it was run: as §1

Gal(b1-4)Glc6S = target: Gal(b1-4)Glc6S
How it was run: as §1

Gal(b1-4)GlcNAc = target: Gal(b1-4)GlcNAc
How it was run: as §1

[24] = target: Gal(b1-4)GlcNAc(a1-6)Gal(b1-4)GlcNAc
How it was run: as §1

[25] = target: Gal(b1-4)GlcNAc(b1-2)Man(a1-3)Man(b1-4)GlcNAc(b1-4)GlcNAc
How it was run: as §1

[26] = target: Gal(b1-4)GlcNAc(b1-2)Man(a1-3)[Gal(b1-4)GlcNAc(b1-2)Man(a1-6)]Man(b1-4)GlcNAc(b1-4)GlcNAc
How it was run: as §1

[27] = target: Gal(b1-4)GlcNAc(b1-2)Man(a1-3)[Gal(b1-4)GlcNAc(b1-2)Man(a1-6)]Man(b1-4)GlcNAc(b1-4)[Fuc(a1-6)]GlcNAc
How it was run: as §1

[28] = target: Gal(b1-4)GlcNAc(b1-2)Man(a1-3)[Man(a1-6)]Man(b1-4)GlcNAc(b1-4)GlcNAc
How it was run: as §1

[29] = target: Gal(b1-4)GlcNAc(b1-2)Man(a1-6)Man(b1-4)GlcNAc(b1-4)GlcNAc
How it was run: as §1

[30] = target: Gal(b1-4)GlcNAc(b1-2)Man(a1-6)[Man(a1-3)]Man(b1-4)GlcNAc(b1-4)GlcNAc
How it was run: as §1

B1: Spy 2007 (Streptococcus pyogenes), Q99XV3 (protein)
chain: MKKGFFLMAMVVSLVMIAGCDKSANPKQPTQGMSVVTSFYPMYAMTKEVSGDLNDVRMIQSGAGIHSFEPSVNDVAAIYDADLFVYHSHTLEAWARDLDPNLKKSKVDVFEASKPLTLDRVKGLEDMEVTQGIDPATLYDPHTWTDPVLAGEEAVNIAKELGRLDPKHKDSYTKNAKAFKKEAEQLTEEYTQKFKKVRSKTFVTQHTAFSYLAKRFGLKQLGISGISPEQEPSPRQLKEIQDFVKEYNVKTIFAEDNVNPKIAHAIAKSTGAKVKTLSPLEAAPSGNKTYLENLRANLEVLYQQLK
In the case of B1, the “glycan array binding signal (z-score)” value (Gal(b1-3)Gal) is reported as -0.009, the “glycan array binding signal (z-score)” value (Gal(b1-3)Gal(b1-4)GlcNAc) is reported as -0.656 and the “glycan array binding signal (z-score)” value [1] is reported as -1.09. The “glycan array binding signal (z-score)” value (Gal(b1-3)GalNAc) was -0.661, the “glycan array binding signal (z-score)” value [2] was 1.01 and the “glycan array binding signal (z-score)” value [3] was -0.971. For the same binder, the “glycan array binding signal (z-score)” value [4] was -0.709, the “glycan array binding signal (z-score)” value [5] was -0.651 and the “glycan array binding signal (z-score)” value [6] was -0.1. For the same binder, the “glycan array binding signal (z-score)” value (Gal(b1-3)GlcNAc) was 0.496, the “glycan array binding signal (z-score)” value [7] was -0.647 and the “glycan array binding signal (z-score)” value [8] was -0.788. For the same binder, the “glycan array binding signal (z-score)” value [9] was -0.348, the “glycan array binding signal (z-score)” value [10] was -0.103 and the “glycan array binding signal (z-score)” value [11] was -0.735. For the same binder, the “glycan array binding signal (z-score)” value [12] was -0.386, the “glycan array binding signal (z-score)” value [13] was -0.038 and the “glycan array binding signal (z-score)” value [14] was -0.079. The “glycan array binding signal (z-score)” value [15] was -0.24, the “glycan array binding signal (z-score)” value [16] was -0.608 and the “glycan array binding signal (z-score)” value [17] was -0.246. The “glycan array binding signal (z-score)” value [18] was -0.377, the “glycan array binding signal (z-score)” value [19] was 0.246 and the “glycan array binding signal (z-score)” value [20] was -0.411. For the same binder, the “glycan array binding signal (z-score)” value [21] was -0.536, the “glycan array binding signal (z-score)” value [22] was -0.584 and the “glycan array binding signal (z-score)” value [23] was -0.344. For the same binder, the “glycan array binding signal (z-score)” value (Gal(b1-4)Glc) was -0.461, the “glycan array binding signal (z-score)” value (Gal(b1-4)Glc6S) was -0.178 and the “glycan array binding signal (z-score)” value (Gal(b1-4)GlcNAc) was -0.197. For the same binder, the “glycan array binding signal (z-score)” value [24] was -0.424, the “glycan array binding signal (z-score)” value [25] was -0.627 and the “glycan array binding signal (z-score)” value [26] was -0.825. For the same binder, the “glycan array binding signal (z-score)” value [27] was -1.16, the “glycan array binding signal (z-score)” value [28] was -1.11 and the “glycan array binding signal (z-score)” value [29] was -0.392. For the same binder, the “glycan array binding signal (z-score)” value [30] was -0.445.

From the supplement of paper PMC8728848
